Publication PMC11975040

By UniProt entry, the sequences of proteins in these tests, tags left out.
UniProt P51532: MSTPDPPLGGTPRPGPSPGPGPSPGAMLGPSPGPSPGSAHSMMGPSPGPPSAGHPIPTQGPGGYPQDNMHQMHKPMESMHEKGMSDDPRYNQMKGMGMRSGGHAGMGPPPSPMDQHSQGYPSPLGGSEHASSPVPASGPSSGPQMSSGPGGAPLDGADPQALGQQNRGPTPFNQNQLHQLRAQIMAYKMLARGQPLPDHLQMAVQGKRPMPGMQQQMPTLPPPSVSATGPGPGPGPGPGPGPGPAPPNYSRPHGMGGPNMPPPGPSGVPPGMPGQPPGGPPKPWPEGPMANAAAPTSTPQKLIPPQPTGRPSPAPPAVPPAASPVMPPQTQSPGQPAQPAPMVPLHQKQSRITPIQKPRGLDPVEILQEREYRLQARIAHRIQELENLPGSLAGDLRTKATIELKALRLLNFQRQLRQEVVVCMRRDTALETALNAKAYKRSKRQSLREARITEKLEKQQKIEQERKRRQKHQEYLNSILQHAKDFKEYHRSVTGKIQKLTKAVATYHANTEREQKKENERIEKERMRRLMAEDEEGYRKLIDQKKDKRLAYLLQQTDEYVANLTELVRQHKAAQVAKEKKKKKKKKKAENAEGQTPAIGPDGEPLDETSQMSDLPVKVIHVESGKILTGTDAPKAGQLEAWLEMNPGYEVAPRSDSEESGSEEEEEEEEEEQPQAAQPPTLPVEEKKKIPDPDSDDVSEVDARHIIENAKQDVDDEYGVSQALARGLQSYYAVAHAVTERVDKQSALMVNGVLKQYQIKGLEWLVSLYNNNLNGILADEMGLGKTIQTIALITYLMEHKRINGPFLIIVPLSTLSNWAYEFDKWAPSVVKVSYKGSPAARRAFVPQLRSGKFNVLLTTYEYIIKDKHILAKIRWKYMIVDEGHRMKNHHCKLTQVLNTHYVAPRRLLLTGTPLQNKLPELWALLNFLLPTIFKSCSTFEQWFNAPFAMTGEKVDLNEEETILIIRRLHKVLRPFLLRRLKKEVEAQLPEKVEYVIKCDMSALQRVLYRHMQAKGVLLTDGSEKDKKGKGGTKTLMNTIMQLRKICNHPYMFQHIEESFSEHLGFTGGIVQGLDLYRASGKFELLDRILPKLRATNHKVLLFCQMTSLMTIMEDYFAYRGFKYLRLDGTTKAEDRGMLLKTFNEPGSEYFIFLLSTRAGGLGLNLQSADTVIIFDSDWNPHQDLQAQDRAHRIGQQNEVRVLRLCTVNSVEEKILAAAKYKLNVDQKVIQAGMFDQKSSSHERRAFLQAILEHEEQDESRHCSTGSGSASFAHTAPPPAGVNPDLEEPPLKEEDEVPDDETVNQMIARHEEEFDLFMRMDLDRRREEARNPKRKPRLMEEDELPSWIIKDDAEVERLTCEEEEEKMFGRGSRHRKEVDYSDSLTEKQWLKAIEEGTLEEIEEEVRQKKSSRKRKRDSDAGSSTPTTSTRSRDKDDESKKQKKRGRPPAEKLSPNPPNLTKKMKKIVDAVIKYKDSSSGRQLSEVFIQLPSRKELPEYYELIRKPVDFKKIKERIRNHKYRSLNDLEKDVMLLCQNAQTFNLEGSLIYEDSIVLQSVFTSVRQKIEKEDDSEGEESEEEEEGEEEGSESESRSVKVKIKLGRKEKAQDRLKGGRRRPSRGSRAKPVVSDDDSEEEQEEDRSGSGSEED
UniProt Q9Y6J0: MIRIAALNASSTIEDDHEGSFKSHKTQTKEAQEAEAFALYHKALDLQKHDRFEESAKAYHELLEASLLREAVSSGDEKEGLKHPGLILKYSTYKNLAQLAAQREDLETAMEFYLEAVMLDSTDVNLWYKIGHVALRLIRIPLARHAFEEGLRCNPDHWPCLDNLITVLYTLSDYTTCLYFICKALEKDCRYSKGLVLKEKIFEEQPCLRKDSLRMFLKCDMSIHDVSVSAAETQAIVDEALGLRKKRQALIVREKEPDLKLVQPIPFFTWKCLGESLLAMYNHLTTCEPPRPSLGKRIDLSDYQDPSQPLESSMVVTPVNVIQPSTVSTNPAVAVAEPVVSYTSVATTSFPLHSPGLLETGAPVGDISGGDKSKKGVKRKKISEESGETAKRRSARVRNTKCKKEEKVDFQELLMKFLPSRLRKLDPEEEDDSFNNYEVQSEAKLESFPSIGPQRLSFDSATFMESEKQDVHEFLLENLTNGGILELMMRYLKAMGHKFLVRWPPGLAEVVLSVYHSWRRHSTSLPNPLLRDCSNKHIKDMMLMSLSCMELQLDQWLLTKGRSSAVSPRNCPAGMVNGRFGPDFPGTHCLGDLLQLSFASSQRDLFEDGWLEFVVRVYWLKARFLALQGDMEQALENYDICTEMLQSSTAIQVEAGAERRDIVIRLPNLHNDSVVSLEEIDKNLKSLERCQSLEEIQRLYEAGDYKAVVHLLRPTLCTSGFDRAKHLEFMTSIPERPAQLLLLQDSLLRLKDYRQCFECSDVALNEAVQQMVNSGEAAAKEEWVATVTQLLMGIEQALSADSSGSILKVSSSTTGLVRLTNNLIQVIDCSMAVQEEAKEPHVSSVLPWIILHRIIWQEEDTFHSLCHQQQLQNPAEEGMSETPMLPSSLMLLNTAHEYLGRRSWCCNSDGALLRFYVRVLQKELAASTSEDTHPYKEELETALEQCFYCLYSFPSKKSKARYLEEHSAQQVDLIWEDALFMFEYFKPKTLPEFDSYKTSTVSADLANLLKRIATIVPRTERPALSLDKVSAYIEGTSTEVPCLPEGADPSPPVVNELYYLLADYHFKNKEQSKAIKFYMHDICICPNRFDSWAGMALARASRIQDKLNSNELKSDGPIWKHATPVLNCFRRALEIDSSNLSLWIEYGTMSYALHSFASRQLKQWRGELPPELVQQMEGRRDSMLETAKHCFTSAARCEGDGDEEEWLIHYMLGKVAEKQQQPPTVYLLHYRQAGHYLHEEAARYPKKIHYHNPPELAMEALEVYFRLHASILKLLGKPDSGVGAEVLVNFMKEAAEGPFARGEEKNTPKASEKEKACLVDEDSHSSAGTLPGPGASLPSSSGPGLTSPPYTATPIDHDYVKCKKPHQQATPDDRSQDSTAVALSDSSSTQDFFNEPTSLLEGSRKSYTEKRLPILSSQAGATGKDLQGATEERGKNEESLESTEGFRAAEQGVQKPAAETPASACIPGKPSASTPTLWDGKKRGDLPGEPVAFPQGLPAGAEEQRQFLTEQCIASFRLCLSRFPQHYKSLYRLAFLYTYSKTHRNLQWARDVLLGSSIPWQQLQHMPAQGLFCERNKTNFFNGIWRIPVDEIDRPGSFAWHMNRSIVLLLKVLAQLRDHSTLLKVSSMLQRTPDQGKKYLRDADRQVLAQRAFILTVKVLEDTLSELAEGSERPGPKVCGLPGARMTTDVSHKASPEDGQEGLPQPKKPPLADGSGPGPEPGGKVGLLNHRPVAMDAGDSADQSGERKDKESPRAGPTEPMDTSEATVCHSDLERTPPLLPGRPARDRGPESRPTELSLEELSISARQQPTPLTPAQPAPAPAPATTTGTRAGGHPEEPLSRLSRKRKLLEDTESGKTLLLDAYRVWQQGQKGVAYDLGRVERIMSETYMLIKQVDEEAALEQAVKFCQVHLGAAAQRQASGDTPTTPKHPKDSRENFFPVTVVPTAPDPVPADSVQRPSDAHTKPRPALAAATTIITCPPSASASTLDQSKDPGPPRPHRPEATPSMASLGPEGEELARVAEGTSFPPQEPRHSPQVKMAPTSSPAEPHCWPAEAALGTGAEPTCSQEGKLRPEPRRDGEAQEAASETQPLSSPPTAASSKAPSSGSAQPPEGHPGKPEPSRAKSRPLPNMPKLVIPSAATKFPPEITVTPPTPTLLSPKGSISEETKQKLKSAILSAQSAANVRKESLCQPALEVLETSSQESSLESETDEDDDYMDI
UniProt Q9H8M2: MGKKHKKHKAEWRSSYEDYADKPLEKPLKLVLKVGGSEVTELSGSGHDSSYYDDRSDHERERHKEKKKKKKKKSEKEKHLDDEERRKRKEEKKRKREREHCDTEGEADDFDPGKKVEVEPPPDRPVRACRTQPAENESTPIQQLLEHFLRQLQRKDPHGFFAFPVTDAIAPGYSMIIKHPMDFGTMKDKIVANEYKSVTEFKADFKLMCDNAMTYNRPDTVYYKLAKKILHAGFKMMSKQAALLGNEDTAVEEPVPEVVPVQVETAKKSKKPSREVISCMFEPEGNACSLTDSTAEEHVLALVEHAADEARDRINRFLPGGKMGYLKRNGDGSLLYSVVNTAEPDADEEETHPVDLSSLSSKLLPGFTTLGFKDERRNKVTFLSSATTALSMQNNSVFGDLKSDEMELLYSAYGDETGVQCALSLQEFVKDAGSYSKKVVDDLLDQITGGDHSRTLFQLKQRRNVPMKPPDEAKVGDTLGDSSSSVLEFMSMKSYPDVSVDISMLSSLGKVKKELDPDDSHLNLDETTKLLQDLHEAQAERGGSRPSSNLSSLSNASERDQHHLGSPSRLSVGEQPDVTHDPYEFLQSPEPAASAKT
UniProt Q9NZM4: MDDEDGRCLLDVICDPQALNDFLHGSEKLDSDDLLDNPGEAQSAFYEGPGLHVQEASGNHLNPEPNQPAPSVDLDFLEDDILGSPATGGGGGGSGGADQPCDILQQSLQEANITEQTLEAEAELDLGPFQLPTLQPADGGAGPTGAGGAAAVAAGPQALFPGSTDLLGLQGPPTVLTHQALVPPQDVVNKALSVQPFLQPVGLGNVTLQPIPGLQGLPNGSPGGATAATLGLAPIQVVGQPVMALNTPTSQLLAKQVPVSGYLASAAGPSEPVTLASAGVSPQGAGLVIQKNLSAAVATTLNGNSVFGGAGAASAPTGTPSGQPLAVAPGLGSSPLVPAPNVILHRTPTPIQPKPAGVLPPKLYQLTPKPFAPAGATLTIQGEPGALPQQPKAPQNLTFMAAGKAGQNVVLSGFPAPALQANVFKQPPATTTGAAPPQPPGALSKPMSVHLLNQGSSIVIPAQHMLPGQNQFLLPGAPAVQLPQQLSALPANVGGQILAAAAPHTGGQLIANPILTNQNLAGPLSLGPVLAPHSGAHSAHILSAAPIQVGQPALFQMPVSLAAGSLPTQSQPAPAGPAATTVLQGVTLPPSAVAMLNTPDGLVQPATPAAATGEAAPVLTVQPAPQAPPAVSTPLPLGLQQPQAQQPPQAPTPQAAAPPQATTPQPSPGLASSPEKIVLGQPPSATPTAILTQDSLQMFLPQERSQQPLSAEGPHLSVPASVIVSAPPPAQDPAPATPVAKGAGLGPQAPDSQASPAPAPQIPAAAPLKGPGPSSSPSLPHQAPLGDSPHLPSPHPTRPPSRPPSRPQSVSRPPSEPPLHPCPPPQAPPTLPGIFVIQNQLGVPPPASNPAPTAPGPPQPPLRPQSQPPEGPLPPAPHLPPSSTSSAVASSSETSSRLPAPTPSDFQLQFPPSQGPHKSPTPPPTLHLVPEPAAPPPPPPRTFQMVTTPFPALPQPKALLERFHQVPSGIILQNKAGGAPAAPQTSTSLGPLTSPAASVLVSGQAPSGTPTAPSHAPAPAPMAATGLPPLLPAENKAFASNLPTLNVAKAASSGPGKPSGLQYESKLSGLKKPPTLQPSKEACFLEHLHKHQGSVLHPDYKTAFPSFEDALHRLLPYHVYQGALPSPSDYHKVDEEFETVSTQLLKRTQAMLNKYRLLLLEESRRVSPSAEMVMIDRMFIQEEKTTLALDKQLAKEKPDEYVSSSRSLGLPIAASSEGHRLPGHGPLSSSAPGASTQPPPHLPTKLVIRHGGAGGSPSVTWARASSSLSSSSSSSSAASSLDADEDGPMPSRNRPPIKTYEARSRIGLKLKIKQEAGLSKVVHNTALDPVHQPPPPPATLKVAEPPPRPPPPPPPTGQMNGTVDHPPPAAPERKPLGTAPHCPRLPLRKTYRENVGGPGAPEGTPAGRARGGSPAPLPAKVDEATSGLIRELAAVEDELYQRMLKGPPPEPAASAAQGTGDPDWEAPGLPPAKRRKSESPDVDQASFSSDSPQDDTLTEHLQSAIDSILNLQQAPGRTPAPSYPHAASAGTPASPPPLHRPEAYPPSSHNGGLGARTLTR

B1: RBM28 (protein, UniProt Q9NW13 1-759)
chain: MAGLTLFVGRLPPSARSEQLEELFSQVGPVKQCFVVTEKGSKACRGFGYVTFSMLEDVQRALKEITTFEGCKINVTVAKKKLRNKTKEKGKNENSECPKKEPKAKKAKVADKKARLIIRNLSFKCSEDDLKTVFAQFGAVLEVNIPRKPDGKMRGFGFVQFKNLLEAGKALKGMNMKEIKGRTVAVDWAVAKDKYKDTQSVSAIGEEKSHESKHQESVKKKGREEEDMEEEENDDDDDDDDEEDGVFDDEDEEEENIESKVTKPVQIQKRAVKRPAPAKSSDHSEEDSDLEESDSIDDGEELAQSDTSTEEQEDKAVQVSNKKKRKLPSDVNEGKTVFIRNLSFDSEEEELGELLQQFGELKYVRIVLHPDTEHSKGCAFAQFMTQEAAQKCLLAASPENEAGGLKLDGRQLKVDLAVTRDEAAKLQTTKVKKPTGTRNLYLAREGLIRAGTKAAEGVSAADMAKRERFELLKHQKLKDQNIFVSRTRLCLHNLPKAVDDKQLRKLLLSATSGEKGVRIKECRVMRDLKGVHGNMKGQSLGYAFAEFQEHEHALKALRLINNNPEIFGPLKRPIVEFSLEDRRKLKMKELRIQRSLQKMRSKPATGEPQKGQPEPAKDQQQKAAQHHTEEQSKVPPEQKRKAGSTSWTGFQTKAEVEQVELPDGKKRRKVLALPSHRGPKIRLRDKGKVKPVHPKKPKPQINQWKQEKQQLSSEQVSRKKAKGNKTETRFNQLVEQYKQKLLGPSKGAPLAKRSKWFDS
B2: NOP16 (protein, UniProt Q9Y3C1 1-178)
chain: MPKAKGKTRRQKFGYSVNRKRLNRNARRKAAPRIECSHIRHAWDHAKSVRQNLAEMGLAVDPNRAVPLRKRKVKAMEVDIEERPKELVRKPYVLNDLEAEASLPEKKGNTLSRDLIDYVRYMVENHGEDYKAMARDEKNYYQDTPKQIRSKINVYKRFYPAEWQDFLDSLQKRKMEVE
B3: DHX30 (protein, UniProt Q7L2E3 1-1194)
chain: MFSLDSFRKDRAQHRQRQCKLPPPRLPPMCVNPTPGGTISRASRDLLKEFPQPKNLLNSVIGRALGISHAKDKLVYVHTNGPKKKKVTLHIKWPKSVEVEGYGSKKIDAERQAAAAACQLFKGWGLLGPRNELFDAAKYRVLADRFGSPADSWWRPEPTMPPTSWRQLNPESIRPGGPGGLSRSLGREEEEDEEEELEEGTIDVTDFLSMTQQDSHAPLRDSRGSSFEMTDDDSAIRALTQFPLPKNLLAKVIQIATSSSTAKNLMQFHTVGTKTKLSTLTLLWPCPMTFVAKGRRKAEAENKAAALACKKLKSLGLVDRNNEPLTHAMYNLASLRELGETQRRPCTIQVPEPILRKIETFLNHYPVESSWIAPELRLQSDDILPLGKDSGPLSDPITGKPYVPLLEAEEVRLSQSLLELWRRRGPVWQEAPQLPVDPHRDTILNAIEQHPVVVISGDTGCGKTTRIPQLLLERYVTEGRGARCNVIITQPRRISAVSVAQRVSHELGPSLRRNVGFQVRLESKPPSRGGALLFCTVGILLRKLQSNPSLEGVSHVIVDEVHERDVNTDFLLILLKGLQRLNPALRLVLMSATGDNERFSRYFGGCPVIKVPGFMYPVKEHYLEDILAKLGKHQYLHRHRHHESEDECALDLDLVTDLVLHIDARGEPGGILCFLPGWQEIKGVQQRLQEALGMHESKYLILPVHSNIPMMDQKAIFQQPPVGVRKIVLATNIAETSITINDIVHVVDSGLHKEERYDLKTKVSCLETVWVSRANVIQRRGRAGRCQSGFAYHLFPRSRLEKMVPFQVPEILRTPLENLVLQAKIHMPEKTAVEFLSKAVDSPNIKAVDEAVILLQEIGVLDQREYLTTLGQRLAHISTDPRLAKAIVLAAIFRCLHPLLVVVSCLTRDPFSSSLQNRAEVDKVKALLSHDSGSDHLAFVRAVAGWEEVLRWQDRSSRENYLEENLLYAPSLRFIHGLIKQFSENIYEAFLVGKPSDCTLASAQCNEYSEEEELVKGVLMAGLYPNLIQVRQGKVTRQGKFKPNSVTYRTKSGNILLHKSTINREATRLRSRWLTYFMAVKSNGSVFVRDSSQVHPLAVLLLTDGDVHIRDDGRRATISLSDSDLLRLEGDSRTVRLLKELRRALGRMVERSLRSELAALPPSVQEEHGQLLALLAELLRGPCGSFDVRKTADD
B4: NIP7 (protein, UniProt Q9Y221 1-180)
chain: MRPLTEEETRVMFEKIAKYIGENLQLLVDRPDGTYCFRLHNDRVYYVSEKIMKLAANISGDKLVSLGTCFGKFTKTHKFRLHVTALDYLAPYAKYKVWIKPGAEQSFLYGNHVLKSGLGRITENTSQYQGVVVYSMADIPLGFGVAAKSTQDCRKVDPMAIVVFHQADIGEYVRHEETLT
B5: PHF10 (protein, UniProt Q8WUB8 1-498)
chain: MAAAAGPGAALSPRPCDSDPATPGAQSPKDDNEDNSNDGTQPSKRRRMGSGDSSRSCETSSQDLGFSYYPAENLIEYKWPPDETGEYYMLQEQVSEYLGVTSFKRKYPDLERRDLSHKEKLYLRELNVITETQCTLGLTALRSDEVIDLMIKEYPAKHAEYSVILQEKERQRITDHYKEYSQMQQQNTQKVEASKVPEYIKKAAKKAAEFNSNLNRERMEERRAYFDLQTHVIQVPQGKYKVLPTERTKVSSYPVALIPGQFQEYYKRYSPDELRYLPLNTALYEPPLDPELPALDSDGDSDDGEDGRGDEKRKNKGTSDSSSGNVSEGESPPDSQEDSFQGRQKSKDKAATPRKDGPKRSVLSKSVPGYKPKVIPNAICGICLKGKESNKKGKAESLIHCSQCENSGHPSCLDMTMELVSMIKTYPWQCMECKTCIICGQPHHEEEMMFCDMCDRGYHTFCVGLGAIPSGRWICDCCQRAPPTPRKVGRRGKNSKEG

molecular target: SMARCA4 (human (endogenous in G401)) (UniProt P51532); experiment: affinity purification with mass spectrometry; as a1, G401 cells induced 48 h to express SMARCB1 I315R in place of the wildtype; compared with the wildtype condition

binding, binds:
CABIN1 (from UniProt Q9Y6J0 1-2220), QSER1 (from UniProt Q2KHR3 1-1735), TRIM28 (from UniProt Q13263 1-835)

molecular target: SMARCA4 (human (endogenous in G401)) (UniProt P51532); experiment: affinity purification with mass spectrometry; as a1, G401 cells induced 48 h to express SMARCB1 W281P in place of the wildtype; compared with the wildtype condition

binding, binds:
B1, B2, B3, B4

molecular target: SMARCA4 (human (endogenous in G401)) (UniProt P51532); experiment: affinity purification with mass spectrometry; BRG1 (G7) antibody cross-linked to protein G magnetic beads; 800 ug G401 nuclear extract (EB300: 300 mM NaCl, 1% NP-40), overnight at 4 C; on-bead digestion, LC-MS/MS, label-free; cells induced 48 h with doxycycline to re-express SMARCB1 …; for partners told as kept, also the W281P and I315R cells

binding, binds:
BRD9 (from UniProt Q9H8M2 1-597), GLTSCR1 (from UniProt Q9NZM4 1-1560), B5

Results are given in words; binding and its absence hold for the method and conditions named. Binding seen in cells or lysates may run through a third protein. These calls come from enrichment with a bait or labelling near it, and not all partners need be listed.
